Measured values taken from patent US20030212034A1, “Method of treatment of obesity and paralyzed muscle and ergogenic aids” (priority 2002, published 2003).

Tests used:
Format in all cases: in vivo, rat
[1] = ATP and CP in neutralized perchloric acid extracts of muscle
[2] = Muscle weights in 3-day denervated and contralateral control muscles; details: AICAR 1 mg/g at ~0, ~24, ~48 h after denervation
Description: Rats were anesthetized with ether and the sciatic nerve of the right hindlimb was severed. The left hindlimb was sham operated to serve as a control. Both skin wounds were closed with a metal clips. The rats used for the acute study were also implanted with a jugular catheter which was exteriorized on the back of the neck at the time of denervation for rapid administration of anesthesia.
Rats were injected either with AICAR (1 mg in 0.9% NaCl/g body weight) or a 0.9% NaCl solution ˜0, ˜24, and ˜48 hours after denervation and were then sacrificed ˜72 hours after denervation without injection. Rats were anesthetized with sodium pentobarbital (4.8 mg/100 g. body weight), soleus and gastrocnemius muscles from both sham and denervated sides were extracted, and muscles were quick frozen in liquid nitrogen and stored for analysis.

[3] = Muscle glycogen after chronic AICAR injection; details: chronic AICAR 1 mg/g daily 4 wk, day after last injection
[4] = red quadriceps, 60 min after AICAR injection, after daily injections for 4 wk
[5] = red quadriceps, 60 min after single AICAR injection 1 mg/g s.c., no chronic treatment
[6] = soleus, 60 min after AICAR injection, after daily injections for 4 wk
[7] = soleus, 60 min after single AICAR injection 1 mg/g s.c., no chronic treatment
[8] = white quadriceps, 60 min after AICAR injection, after daily injections for 4 wk
[9] = white quadriceps, 60 min after single AICAR injection 1 mg/g s.c., no chronic treatment

With `NC(=O)c1ncn([C@@H]2O[C@H](CO)[C@@H](O)[C@H]2O)c1N` [AICAR, 5-aminoimidazole-4-carboxamide-1-β-D-ribofuranoside] the ATP [1, 4] was 8.6 ± 0.2 µmol/g, the CP [1, 4] was 19.6 ± 0.4 µmol/g and the ATP [1, 5] was 9.2 ± 0.3 µmol/g. The CP [1, 5] was 22.4 ± 3.5 µmol/g, the ATP [1, 6] was 5.1 ± 0.5 µmol/g and the CP [1, 6] was 13.8 ± 0.9 µmol/g. For the same molecule, the ATP [1, 7] was 6.5 ± 0.8 µmol/g, the CP [1, 7] was 12.2 ± 1.2 µmol/g and the ATP [1, 8] was 9.6 ± 0.2 µmol/g. The CP [1, 8] was 21.9 ± 0.8 µmol/g, the ATP [1, 9] was 8.0 ± 0.3 µmol/g and the CP [1, 9] was 17.6 ± 0.8 µmol/g. For the same molecule, the “Muscle Weight, Gastrocnemius” value ([2]; 3-day denervated muscle) was 920 ± 46 mg, the “Muscle Weight, Soleus” value ([2]; 3-day denervated muscle) was 67 ± 3.0 mg and the “Muscle Weight, Gastrocnemius” value ([2]; contralateral control muscle) was 1,055 ± 45 mg. For the same molecule, the “Muscle Weight, Soleus” value ([2]; contralateral control muscle) was 82 ± 4.4 mg, the Glycogen ([3]; red quadriceps) was 9.1 ± 0.4 mg/g and the Glycogen ([3]; soleus) was 5.8 ± 0.4 mg/g. The Glycogen ([3]; white quadriceps) was 12.3 ± 0.4 mg/g.
